PubChem BioAssay AID1259254, NCATS, 2017

Screen: 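Finding genes that stop cells copying their DNA twice in one cycle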 (primary screen)
Cells: human HCT116 colorectal cancer cells
Knock-down reagent: single siRNA against human genes
Time to read-out: 3 days
Measurement: 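Imaged Hoechst DNA stain sorts each cell into a cycle phase by DNA amount; per plate, G2 fraction set to 0% for non-targeting and 100% for GMNN siRNA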
Reading the numbers: G2 robust z-score: higher = more G2 cells, more excess DNA replication
Hit rule: 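An siRNA counts as active if its G2 robust z-score lies at least 5 MADs above the screen median; here such calls match roughly 38% of GMNN control or more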
The deposit covers about 59,000 reagents; shown is an unselected part. About 1,550 of all reagents (2.6%) count as active. 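G2 share is only a proxy for re-replication; each gene was hit by three separate siRNAs, and active genes were retested.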 Reagents against one gene are numbered here. Not all columns of the deposit are shown. Reagent sequences are not shown. Not given: the amount of reagent.

G2 robust z-score, by target and reagent
ANKRD11 (ankyrin repeat domain 11): #1 0.394 inactive; #2 1.73 inactive; #3 2.83 inactive
SDSL (serine dehydratase like): #1 -0.964 inactive; #2 0.298 inactive; #3 1.72 inactive
FAM245A (family with sequence similarity 245 member A): #1 0.196 inactive; #2 -0.146 inactive; #3 -0.345 inactive
ZNF680 (zinc finger protein 680): #1 5.16 active; #2 1.05 inactive; #3 0.234 inactive
SPMIP10 (sperm microtubule inner protein 10): #1 -0.244 inactive; #2 -1.02 inactive; #3 -1.15 inactive
NOXRED1 (NADP dependent oxidoreductase domain containing 1): #1 0.328 inactive; #2 0.0637 inactive; #3 -0.619 inactive
AQP4 (aquaporin 4): #1 -0.636 inactive; #2 4.87 inactive; #3 3.92 inactive
TESK2 (testis associated actin remodelling kinase 2): #1 0.0439 inactive; #2 -1.4 inactive; #3 0.769 inactive
LRRC3C (leucine rich repeat containing 3C): #1 0.489 inactive; #2 0.13 inactive; #3 -1.06 inactive
DUSP7 (dual specificity phosphatase 7): #1 4.44 inactive; #2 -0.031 inactive; #3 2.2 inactive
NELFA (negative elongation factor complex member A): #1 1.06 inactive; #2 -0.157 inactive; #3 0.0635 inactive
ZNF423 (zinc finger protein 423): #1 -1.02 inactive; #2 -0.382 inactive; #3 0.0416 inactive
RDH5 (retinol dehydrogenase 5): #1 0.658 inactive; #2 0.119 inactive; #3 -0.492 inactive
CDYL (chromodomain Y like): #1 1.79 inactive; #2 -1.14 inactive; #3 -0.216 inactive
LINC01433 (long independently transcribed non-coding RNA 1433): #1 -0.346 inactive; #2 -1.08 inactive; #3 2.36 inactive
GPM6A (glycoprotein M6A): #1 0.43 inactive; #2 -1.14 inactive; #3 0.48 inactive
PDCD6 (programmed cell death 6): #1 -0.536 inactive; #2 -1.14 inactive; #3 -0.292 inactive
CCN5 (cellular communication network factor 5): #1 -0.476 inactive; #2 -0.77 inactive; #3 -0.5 inactive
INSYN1 (inhibitory synaptic factor 1): #1 0.0993 inactive; #2 -0.528 inactive; #3 0.344 inactive
PRAP1 (proline rich acidic protein 1): #1 -0.552 inactive; #2 -0.555 inactive; #3 1.57 inactive
CDC50CP (CDC50 family member C, pseudogene): #1 0.442 inactive; #2 1.87 inactive; #3 3.27 inactive
BPIFB2 (BPI fold containing family B member 2): #1 0.446 inactive; #2 -0.0612 inactive; #3 -0.792 inactive
CNR2 (cannabinoid receptor 2): #1 1.48 inactive; #2 0.677 inactive; #3 3.44 inactive
SEC11A (SEC11 homolog A, signal peptidase complex subunit): #1 -1.15 inactive; #2 6.59 active; #3 0.115 inactive
INTS9 (integrator complex subunit 9): #1 -0.738 inactive; #2 -0.804 inactive; #3 3.37 inactive
EPHX1 (epoxide hydrolase 1): #1 2.12 inactive; #2 5.42 active; #3 0.159 inactive
MRPL43 (mitochondrial ribosomal protein L43): #1 -0.784 inactive; #2 -0.756 inactive; #3 -1.06 inactive
TRAM2 (translocation associated membrane protein 2): #1 2.68 inactive; #2 1.25 inactive; #3 3.11 inactive
MYCL (MYCL proto-oncogene, bHLH transcription factor): #1 -0.82 inactive; #2 -0.722 inactive; #3 -0.654 inactive
